Assay results reported in patent US20240343699A1, “DERIVATIVES OF SUBSTITUTED MORPHOLINES AND USES THEREOF” (Supernus Pharmaceuticals, Inc., priority 2023, published 2024).
For some assays here: The name of at least one read-out is uncertain. Some results were stated once for a whole list of compounds, not compound by compound.

Assays:
[1] = system: Epilntestinal model; test: Intestinal permeability and metabolic stability; format: in vitro ADME; details: apical application, basolateral sampling 0-120 min
[2] = Metabolic stability in rat liver S9; format: in vitro ADME, Sprague Dawley rat; details: dog and human liver S9, 60 minutes, presence and absence of cofactors
Protocol: Incubation Buffer (PBK): 50 mM potassium phosphate buffer was prepared from 1 M potassium phosphate buffer, pH 7.2. […] The dilution of […] was prepared by 90% methanol/10% DMSO, then 10 μM working solutions were prepared by diluting the 0.1 mM intermediates with 50 mM PBK. […] Prior to use, the stock solutions were brought to room temperature and thoroughly mixed. […] Cofactors Solutions: the mixture of cofactors solution was made at 10 mM of NADPH and 10 mM of UDPGA in PBK buffer.
The incubation was carried out in 96-well plates. The liver S9 working solutions were added to 96-well plates (80 μL/well) in duplicate. […] Reaction was initiated by adding cofactor mixture 10 μL/well. The plates were incubated at 37° C. in a water bath with shaking. […] The final organic solvent content in the incubation was ≤1%.
At specified time points, i.e., 5, 10, 20, 30 and 60 minutes, NCF60 (without adding NADPH (Nicotinamide-adenine dinucleotide phosphate, reduced form) and UDPGA (Uridine 5′-diphosphoglucuronic acid trisodium salt) replaced with PBK buffer reaction was stopped by adding three volumes of stop solution. The time zero (To) samples were prepared by adding three volumes of stop solution to liver S9 samples, followed by addition of test article or control, and cofactor mixture solution 10 μL/well.
Subsequently, 100 μL of supernatant.
Positive controls: 7-ethoxycoumarin and 7-hydroxycoumarin.

[3] = system: behavioral signature; test: SmartCube phenotypic screening (class/subclass and DRFA similarity analysis); format: in vivo, male C57/B16 mice; details: DRFA, active doses
Protocol: A study was conducted to evaluate the CNS-like efficacy of novel test compounds using the SmartCube® System.
Animals. Male C57/B16 mice from Taconic Laboratories (Germantown, NY) were used. Upon receipt, mice were group-housed in OPTIMice® ventilated cages with 4 mice per cage. Mice were acclimated to the colony room for at least one week prior to test, and subsequently tested at approximately 8-9 weeks of age. All animals were examined, handled, and weighed prior to initiation of the study to assure adequate health and suitability and to minimize nonspecific stress associated with manipulation. During the course of the study, 12/12 light/dark cycles were maintained. The room temperature was 20-23° C. with a relative humidity maintained between 30-70%. Chow and water were provided ad libitum for the duration of the study.
Test compounds. All compounds were administered orally at a dose volume of 10 mL/kg, 20 minutes prior to testing. Formulations were prepared fresh on day of testing and dosing was completed within one hour of formulation. Compounds were prepared according to the table below. Twelve mice were used in each treatment group:
SmartCube®. The SmartCube® system is designed to and can successfully measure numerous spontaneous behaviors and response to challenges in the same testing environment. The hardware includes force sensors and a number of aversive stimuli to elicit behavior. Three high-resolution video cameras provide constant 3D view of the mouse in the SmartCube® apparatus (SC) throughout the entire testing period. During the 45-minute test session the mice are exposed to a sequence of challenges. The cubes are cleaned between each run.
Digital videos of the subjects were processed through computer segmentation algorithms to fit geometrical models to each mouse frame image. The resulting fitted parameters were then analyzed using behavioral classifier algorithms to extract behavioral states, such as rearing, locomotion, and immobility. The data obtained in this way was used to define a drug signature for PGI's known reference compounds and establish a therapeutic class signature against which a test sample can be compared.
The data mining effort utilizes several analytical methods including Bayesian probabilistic density models and Decision trees. The algorithms consider ˜2,600 measures including frequency and duration of behavioral states such as grooming, rearing, etc., and many other features obtained during the test session.
Two major types of analyses are routinely conducted: Class and subclass.
Each reference drug was tested at multiple doses appropriate for that drug in mice.
Multiple analyses of the data were performed to quantitatively produce independent predictions of drug class, and drug subclass. The behavioral signatures of the test drugs were evaluated using these classifiers to predict potential therapeutic utility.
The results for the class and subclass analyses are presented as standardized bar charts with percentages that sum to 100 for each dose.
Similarity Analysis Using “Clouds Framework”. The outcome from SmartCube® is a large set of features (behavioral parameters) that can be used for various analyses. […] Therefore, we formed statistically independent combinations of the original features (further referred to as de-correlated features). Each de-correlated feature extracted information from the whole cluster of the original features, so the new feature space would have lower dimensionality. Next, we applied a proprietary feature ranking algorithm to score each feature for its discrimination power (ability to separate the two groups, e.g. vehicle from treatment). Ranking is an important part of our analyses because it weighs each feature change by its relevance. We applied a feature ranking algorithm, derived from support vector in the support vector machine learning method, to rank each feature.

CCOc1ccccc1OC[C@@H]1CN(C(=O)OC(C)OC(=O)[C@@H](N)C(C)C)CCO1 (some centres unmarked) [COMPOUND A]
intestinal permeability [1]: did not permeate through the intestine | remaining test compound [2]: ≤ 5%

CCOc1ccccc1OC[C@@H]1CN(C(=O)OC(OC(=O)[C@@H](N)C(C)C)C(C)C)CCO1 (some centres unmarked) [COMPOUND B]
proximity to desipramine and amitriptyline [3]: > 60% | proximity to donepezil [3]: > 70% | proximity to morphine [3]: > 70% | remaining test compound [2]: ≤ 5%

CCOc1ccccc1OC[C@@H]1CN(C(=O)OC(OC(=O)[C@H](N)C(C)C)C(C)C)CCO1 (some centres unmarked) [COMPOUND C]
proximity to amphetamine [3]: > 70% | proximity to atomoxetine [3]: > 70% | proximity to donepezil [3]: > 70% | proximity to morphine [3]: > 70% | remaining test compound [2]: ≤ 5%
